Reference: patent US7767693B2, “Hsp90 family protein inhibitors” (Kyowa Hakko Kirin Co., Ltd., priority 2003, dated 2010)
Some results were stated once for a whole list of compounds, not compound by compound.

Molecular target: T1, Human N-terminal recombinant Hsp90 protein (region of amino acids 9 to 236) (Homo sapiens, UniProt P07900)
T1 construct: region of amino acids 9 to 236; made in house
Assay: Hsp90 Protein Binding Assay
Conditions: at concentrations below 10 μmol/L; competition with biotinylated Radicicol 0.1 μmol/L, immobilized Hsp90, time-resolved fluorescence

Compound | inhibited the binding of biotinylated Radicicol to the Hsp90 protein
CCOc1ccc(C(=O)c2c(O)cc(O)c(CC)c2CC(=O)N(CCO)CCO)cc1 [Compound 121, 2-[2-(4-ethoxybenzoyl)-6-ethyl-3,5-dihydroxy-phenyl]-N,N-bis(2-hydroxyethyl)acetamide] | more than 30%
CCOc1ccc(C(=O)c2c(O)cc(O)c(CC)c2CC(=O)N(CCO)CCOC)cc1 [Compound 122, 2-[2-(4-ethoxybenzoyl)-6-ethyl-3,5-dihydroxyphenyl]-N-(2-hydroxyethyl)-N-(2-methoxyethyl)-acetamide] | more than 30%
CCc1c(O)cc(O)c(C(=O)c2ccc(OC(C)C)cc2)c1CC(=O)N(CCO)CCO [Compound 123, 2-[2-ethyl-3,5-dihydroxy-6-(4-isopropoxy-benzoyl)phenyl]-N,N-bis(2-hydroxyethyl)acetamide] | more than 30%
CCc1c(O)cc(O)c(C(=O)c2ccc(OC(C)C)cc2)c1CC(=O)N(CCO)CCOC [Compound 124, 2-[2-ethyl-3,5-dihydroxy-6-(4-isopropoxy-benzoyl)phenyl]-N-(2-hydroxyethyl)-N-(2-methoxyethyl)-acetamide] | more than 30%
CCc1c(O)cc(O)c(C(=O)c2ccc(OCCN3CCOCC3)c(OC)c2)c1CC(=O)N(CCOC)CCOC [Compound 125, 2-{2-ethyl-3,5-dihydroxy-6-[3-methoxy-4-(2-morpholinoethoxy)benzoyl]phenyl}-N,N-bis(2-methoxyethyl)-acetamide] | more than 30%
CCc1c(O)cc(O)c(C(=O)c2ccc(OCCO)c(OC)c2)c1CC(=O)N(CCOC)CCOC [Compound 126, 2-{2-ethyl-3,5-dihydroxy-6-[4-(2-hydroxy-ethoxy)-3-methoxybenzoyl]phenyl}-N,N-bis(2-methoxyethyl)-acetamide] | more than 30%
CCc1c(O)cc(O)c(C(=O)c2ccc(OC)c(OC)c2)c1CC(=O)N(CCCN(C)C)CCOC [Compound 127, 2-[2-(3,4-dimethoxybenzoyl)-6-ethyl-3,5-dihydroxyphenyl]-N-(3-dimethylaminopropyl)—N-(2-methoxy-ethyl)acetamide] | more than 30%
CCc1c(O)cc(O)c(C(=O)c2ccc(OC)cc2)c1CC(=O)N(CCCN(C)C)CCOC [Compound 128, N-(3-dimethylaminopropyl)-2-[2-ethyl-3,5-dihydroxy-6-(4-methoxybenzoyl)phenyl]-N-(2-methoxyethyl)-acetamide] | more than 30%
CCc1c(O)cc(O)c(C(=O)c2ccc(OC)cc2)c1CC(=O)N(CCOC)CCN(CC)CC [Compound 130, N-(2-diethylaminoethyl)-2-[2-ethyl-3,5-dihydroxy-6-(4-methoxybenzoyl)phenyl]-N-(2-methoxyethyl)-acetamide] | more than 30%
CCc1c(O)cc(O)c(C(=O)c2ccc(OC)c(OC)c2)c1CC(=O)N1CCC(N2CCOCC2)CC1 [Compound 131, 2-[2-(3,4-dimethoxybenzoyl)-6-ethyl-3,5-dihydroxyphenyl]-1-(4-morpholinopiperidino)ethanone] | more than 30%
CCc1c(O)cc(O)c(C(=O)c2ccc(OC)cc2)c1CC(=O)N1CCC(N2CCOCC2)CC1 [Compound 132, 2-[2-ethyl-3,5-dihydroxy-6-(4-methoxy-benzoyl)phenyl]-1-(4-morpholinopiperidino)ethanone] | more than 30%
CCOc1ccc(C(=O)c2c(O)cc(O)c(CC)c2CC(=O)N(CCOC)CCN2CCOCC2)cc1 [Compound 133, 2-[2-(4-ethoxybenzoyl)-6-ethyl-3,5-dihydroxyphenyl]-N-(2-methoxyethyl)-N-(2-morpholinoethyl)-acetamide] | more than 30%
CCc1c(O)cc(O)c(C(=O)c2ccc(OC(C)C)cc2)c1CC(=O)N(CCOC)CCN1CCOCC1 [Compound 134, 2-[2-ethyl-3,5-dihydroxy-6-(4-isopropoxy-benzoyl)phenyl]-N-(2-methoxyethyl)-N-(2-morpholinoethyl)-acetamide] | more than 30%
COCCN(CCO)C(=O)Cc1c(Br)c(O)cc(O)c1C(=O)c1ccc(OC)cc1 [Compound 135, 2-[2-bromo-3,5-dihydroxy-6-(4-methoxy-benzoyl)phenyl]-N-(2-hydroxyethyl)-N-(2-methoxyethyl)-acetamide] | more than 30%
COCCN(CCO)C(=O)Cc1c(C(C)=O)c(O)cc(O)c1C(=O)c1ccc(OC)cc1 [Compound 136, 2-[2-acetyl-3,5-dihydroxy-6-(4-methoxybenzoyl)phenyl]-N-(2-hydroxyethyl)-N-(2-methoxy-ethyl)acetamide] | more than 30%
CCc1c(O)cc(O)c(C(=O)c2ccc(OCCOC)c(OCCOC)c2)c1CC(=O)N(CCO)CCO [Compound 137, 2-{2-[3,4-bis(2-methoxyethoxy)benzoyl]-6-ethyl-3,5-dihydroxyphenyl}-N-bis(2-hydroxyethyl)acetamide] | more than 30%
CCc1c(O)cc(O)c(C(=O)c2ccc(OCCOC)c(OCCOC)c2)c1CC(=O)N(CCO)CCOC [Compound 138, 2-{2-[3,4-bis(2-methoxyethoxy)benzoyl]-3,5-dihydroxy-6-ethylphenyl}-N-(2-hydroxyethyl)-N-(2-methoxy-ethyl)acetamide] | more than 30%
CCc1c(O)cc(O)c(C(=O)c2ccc(OCCN3CCOCC3)c(OC)c2)c1CC(=O)N(CCOC)CCOC.Cl [Compound 139, 2-{2-ethyl-3,5-dihydroxy-6-[3-methoxy-4-(2-morpholinoethoxy)benzoyl]phenyl}-N,N-bis(2-methoxyethyl)-acetamide hydrochloride] | more than 30%
CCc1c(O)cc(O)c(C(=O)c2ccc(OC)cc2)c1CC(=O)N(CCCOC)CCN(C)C [Compound 140, N-(2-dimethylaminoethyl)-2-[2-ethyl-3,5-dihydroxy-6-(4-methoxybenzoyl)phenyl]-N-(3-methoxypropyl)-acetamide] | more than 30%
CCc1c(O)cc(O)c(C(=O)c2ccc(OC)c(OC)c2)c1CC(=O)N(CCCOC)CCN(C)C [Compound 141, 2-[2-(3,4-dimethoxybenzoyl)-3,5-dihydroxy-6-ethylphenyl]-N-(2-dimethylaminoethyl)-N-(3-methoxypropyl)-acetamide] | more than 30%
CCc1c(O)cc(O)c(C(=O)c2ccc(OC)cc2)c1CC(=O)N(CCOC)CCN(C)C.Cl [Compound 142, N-(2-dimethylaminoethyl)-2-[2-ethyl-3,5-dihydroxy-6-(4-methoxybenzoyl)phenyl]-N-(2-methoxyethyl)-acetamide hydrochloride] | more than 30%
CCc1c(O)cc(O)c(C(=O)c2ccc(C(F)(F)F)cc2)c1CC(=O)N(CCO)CCO [Compound 143, 2-{2-ethyl-3,5-dihydroxy-6-[4-(trifluoro-methyl)benzoyl]phenyl}-N,N-bis(2-hydroxyethyl)acetamide] | more than 30%
CCc1c(O)cc(O)c(C(=O)c2ccc(C(F)(F)F)cc2)c1CC(=O)N(CCO)CCOC [Compound 144, 2-{2-ethyl-3,5-dihydroxy-6-[4-(trifluoro-methyl)benzoyl]phenyl}-N-(2-hydroxyethyl)-N-(2-methoxy-ethyl)acetamide] | more than 30%
CCc1c(O)cc(O)c(C(=O)c2ccc(F)c(F)c2)c1CC(=O)N(CCO)CCO [Compound 145, 2-[2-(3,4-difluorobenzoyl)-6-ethyl-3,5-dihydroxyphenyl]-N,N-bis(2-hydroxyethyl)acetamide] | more than 30%
CCc1c(O)cc(O)c(C(=O)c2ccc(F)c(F)c2)c1CC(=O)N(CCO)CCOC [Compound 146, 2-[2-(3,4-difluorobenzoyl)-6-ethyl-3,5-dihydroxyphenyl]-N-(2-hydroxyethyl)-N-(2-methoxyethyl)-acetamide] | more than 30%
CCc1c(O)cc(O)c(C(=O)c2ccc(OCCN3CCCCC3)c(OC)c2)c1CC(=O)N(CCOC)CCOC [Compound 147, 2-{2-ethyl-3,5-dihydroxy-6-[3-methoxy-4-(2-piperidinoethoxy)benzoyl]phenyl}-N,N-bis(2-methoxyethyl)-acetamide] | more than 30%
CCc1c(O)cc(O)c(C(=O)c2ccc(OCCN3CCC(N4CCOCC4)CC3)c(OC)c2)c1CC(=O)N(CCOC)CCOC [Compound 148, 2-(2-ethyl-3,5-dihydroxy-6-{3-methoxy-4-[2-(4-morpholinopiperidino)ethoxy]benzoyl}phenyl)-N,N-bis(2-methoxyethyl)acetamide] | more than 30%
CCc1c(O)cc(O)c(C(=O)c2ccc(OCCCN3CCOCC3)c(OC)c2)c1CC(=O)N(CCOC)CCOC [Compound 149, 2-{2-ethyl-3,5-dihydroxy-6-[3-methoxy-4-(3-morpholinopropoxy)benzoyl]phenyl}-N,N-bis(2-methoxyethyl)-acetamide] | more than 30%
CCc1c(O)cc(O)c(C(=O)c2ccc(OCC(=O)N3CCN(C)CC3)c(OC)c2)c1CC(=O)N(CCOC)CCOC [Compound 150, 2-(2-ethyl-3,5-dihydroxy-6-{3-methoxy-4-[2-(4-methylpiperazin-1-yl)-2-oxoethoxy]benzoyl}phenyl)-N,N-bis(2-methoxyethyl)acetamide] | more than 30%
CCc1c(O)cc(O)c(C(=O)c2ccsc2)c1CC(=O)N(CCO)CCOC [Compound 151, 2-[2-ethyl-3,5-dihydroxy-6-(3-thienyl-carbonyl)phenyl]-N-(2-hydroxyethyl)-N-(2-methoxyethyl)-acetamide] | more than 30%
